These results are taken from publication PMC3486646.

Sequences of proteins named here, by UniProt entry; tags and fusion partners are left off. Residues count along the entry.
UniProt O95793, residues 82-577: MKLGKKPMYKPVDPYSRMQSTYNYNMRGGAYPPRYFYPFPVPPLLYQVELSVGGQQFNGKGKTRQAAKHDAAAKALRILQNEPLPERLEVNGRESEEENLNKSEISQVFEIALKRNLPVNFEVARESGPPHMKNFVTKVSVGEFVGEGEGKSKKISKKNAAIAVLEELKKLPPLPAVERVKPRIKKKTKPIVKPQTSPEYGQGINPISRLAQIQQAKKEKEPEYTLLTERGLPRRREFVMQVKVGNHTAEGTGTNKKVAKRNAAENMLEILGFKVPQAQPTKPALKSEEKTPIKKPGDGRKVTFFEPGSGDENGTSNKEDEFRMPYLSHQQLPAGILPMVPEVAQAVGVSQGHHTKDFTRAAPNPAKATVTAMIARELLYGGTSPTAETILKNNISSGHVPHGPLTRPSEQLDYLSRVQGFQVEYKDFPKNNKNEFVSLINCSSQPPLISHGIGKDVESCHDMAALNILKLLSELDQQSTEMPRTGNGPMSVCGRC

B1: Heterogeneous nuclear ribonucleoprotein R (protein, UniProt O43390 1-633)
chain: MANQVNGNAVQLKEEEEPMDTSSVTHTEHYKTLIEAGLPQKVAERLDEIFQTGLVAYVDLDERAIDALREFNEEGALSVLQQFKESDLSHVQNKSAFLCGVMKTYRQREKQGSKVQESTKGPDEAKIKALLERTGYTLDVTTGQRKYGGPPPDSVYSGVQPGIGTEVFVGKIPRDLYEDELVPLFEKAGPIWDLRLMMDPLSGQNRGYAFITFCGKEAAQEAVKLCDSYEIRPGKHLGVCISVANNRLFVGSIPKNKTKENILEEFSKVTEGLVDVILYHQPDDKKKNRGFCFLEYEDHKSAAQARRRLMSGKVKVWGNVVTVEWADPVEEPDPEVMAKVKVLFVRNLATTVTEEILEKSFSEFGKLERVKKLKDYAFVHFEDRGAAVKAMDEMNGKEIEGEEIEIVLAKPPDKKRKERQAARQASRSTAYEDYYYHPPPRMPPPIRGRGRGGGRGGYGYPPDYYGYEDYYDDYYGYDYHDYRGGYEDPYYGYDDGYAVRGRGGGRGGRGAPPPPRGRGAPPPRGRAGYSQRGAPLGPPRGSRGGRGGPAQQQRGRGSRGSRGNRGGNVGGKRKADGYNQPDSKRRQTNNQQNWGSQPIAQQPLQQGGDYSGNYGYNNDNQEFYQDTYGQQWK
B2: Mannosyl-oligosaccharide glucosidase (protein, UniProt Q13724 1-837)
chain: MARGERRRRAVPAEGVRTAERAARGGPGRRDGRGGGPRSTAGGVALAVVVLSLALGMSGRWVLAWYRARRAVTLHSAPPVLPADSSSPAVAPDLFWGTYRPHVYFGMKTRSPKPLLTGLMWAQQGTTPGTPKLRHTCEQGDGVGPYGWEFHDGLSFGRQHIQDGALRLTTEFVKRPGGQHGGDWSWRVTVEPQDSGTSALPLVSLFFYVVTDGKEVLLPEVGAKGQLKFISGHTSELGDFRFTLLPPTSPGDTAPKYGSYNVFWTSNPGLPLLTEMVKSRLNSWFQHRPPGAPPERYLGLPGSLKWEDRGPSGQGQGQFLIQQVTLKIPISIEFVFESGSAQAGGNQALPRLAGSLLTQALESHAEGFRERFEKTFQLKEKGLSSGEQVLGQAALSGLLGGIGYFYGQGLVLPDIGVEGSEQKVDPALFPPVPLFTAVPSRSFFPRGFLWDEGFHQLVVQRWDPSLTREALGHWLGLLNADGWIGREQILGDEARARVPPEFLVQRAVHANPPTLLLPVAHMLEVGDPDDLAFLRKALPRLHAWFSWLHQSQAGPLPLSYRWRGRDPALPTLLNPKTLPSGLDDYPRASHPSVTERHLDLRCWVALGARVLTRLAEHLGEAEVAAELGPLAASLEAAESLDELHWAPELGVFADFGNHTKAVQLKPRPPQGLVRVVGRPQPQLQYVDALGYVSLFPLLLRLLDPTSSRLGPLLDILADSRHLWSPFGLRSLAASSSFYGQRNSEHDPPYWRGAVWLNVNYLALGALHHYGHLEGPHQARAAKLHGELRANVVGNVWRQYQATGFLWEQYSDRDGRGMGCRPFHGWTSLVLLAMAEDY
B3: Heterogeneous nuclear ribonucleoprotein H3 (protein, UniProt P31942 1-346)
chain: MDWVMKHNGPNDASDGTVRLRGLPFGCSKEEIVQFFQGLEIVPNGITLTMDYQGRSTGEAFVQFASKEIAENALGKHKERIGHRYIEIFRSSRSEIKGFYDPPRRLLGQRPGPYDRPIGGRGGYYGAGRGSMYDRMRRGGDGYDGGYGGFDDYGGYNNYGYGNDGFDDRMRDGRGMGGHGYGGAGDASSGFHGGHFVHMRGLPFRATENDIANFFSPLNPIRVHIDIGADGRATGEADVEFVTHEDAVAAMSKDKNNMQHRYIELFLNSTPGGGSGMGGSGMGGYGRDGMDNQGGYGSVGRMGMGNNYSGGYGTPDGLGGYGRGGGGSGGYYGQGGMSGGGWRGMY

Results are given in words; binding and its absence hold for the method and conditions named. Binding seen in cells or lysates may run through a third protein. These calls come from enrichment with a bait or labelling near it, and not all partners need be listed. Where a sequence is shown, tags or fusion partners need not be part of it.

The assay deals with Staufen1-TAP (UniProt O95793). Put plainly: affinity purification with mass spectrometry; tandem affinity purification of Staufen1-TAP from lysates of stable 293T cells, mock or pNL4-3 transfected; eluates on SDS-PAGE, 23 gel slices, in gel trypsin digestion, LC-MS/MS; FDR less than 1%.
Take B1: the binding result is listed as “binds”.

Turning to B2, the binding entry is given as “binds”.

B3: the binding entry is listed as “binds”.
